Measurements from patent US9095541B2, “Brain tumor targeting peptides and methods” (Arch Cancer Therapeutics, Inc., priority 2009, dated 2015).
At least one peptide structure holds a part that was inferred or is arguable (an end, a ring closure or a residue). Peptide text beside a SMILES is read from it.

Test system: lipid raft marker GM1 in U87R cells
Assay type: cell-based, human
Conditions: H10 phage, Alexa 555-cholera toxin B subunit, 30 minutes

CC[C@H](C)[C@H](NC(=O)[C@H](CO)NC(=O)[C@H](CC(N)=O)NC(=O)[C@@H](N)[C@@H](C)O)C(=O)N[C@@H](Cc1c[nH]c2ccccc12)C(=O)N[C@@H](Cc1ccc(O)cc1)C(=O)N[C@H](C(=O)N[C@@H](C)C(=O)N1CCC[C@H]1C(=O)N[C@@H](Cc1ccc(O)cc1)C(=O)N[C@@H](CCSC)C(=O)N[C@@H](Cc1ccccc1)C(=O)O)[C@@H](C)O [H10] (H-TNSIWYTAPYMF-OH; N-terminus and C-terminus assumed)
GM1 localisation: generalized accumulation of GM1 staining
